Patent US5272147A, “Pyrazolopyrimidinone antianginal agents” (Pfizer Inc., priority 1991, dated 1993)
For at least one compound, name, drawing or mass did not settle the structure.

Tested on: Ca/CAM-independent cGMP PDE
Experiment: Phosphodiesterase activity: inhibition of calcium/calmodulin (Ca/CAM)-independent cGMP PDE from rabbit platelets
Assay type: biochemical
Conditions: between Ca/CAM-independent cGMP PDE and cGMP-inhibited cAMP PDE (IC50 cAMP / IC50 cGMP)
Protocol: Compound affinities for cGMP and cAMP PDEs are assessed by determination of their IC50 value (the concentration of inhibitor required for 50% inhibition of enzyme activity). The PDE enzymes are isolated from rabbit platelets and rat kidney, essentially by the method of W. J. Thompson et al. (Biochem., 1971, 10, 311). The calcium/calmodulin (Ca/CAM)-independentcGMP PDE and the cGMP-inhibited cAMP PDE enzymes are obtained from rabbit platelets whilst, of the four major PDE enzymes of the rat kidney, the Ca/CAM-dependent cGMP PDE (fraction I) is isolated. Assays are performed using a modification of the "batch" method of W. J. Thompson and M. M. Appleman (Biochem., 1979, 18, 5228).

## CCCc1nn(C)c2c(=O)[nH]c(-c3cc(C(=O)N4CCN(C)CC4)ccc3OCC)nc12 [Example 30, 5-[2-Ethoxy-5-(4-methylpiperazinylcarbonyl)phenyl]-1-methyl-3-n-propyl-1,6-dihydro-7H-pyrazolo[4,3-d]-pyrimidin-7-one]
  SELECTIVITY RATIO: 41,428
